{"source": "PubChem BioAssay AID686938 (Drosophila RNAi Screening Center, 2013)", "purpose": "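Knock-downs reducing store-operated calcium influx in Drosophila cells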 (primary screen)", "cell system": "Drosophila S2R+ cells", "knock-down reagent": "long dsRNA against Drosophila genes, about 0.25 µg dsRNA per well, roughly 10,000 cells", "timing": "5 days of knock-down before the calcium assay", "conditions": "thapsigargin (SERCA pump blocker) to empty calcium stores; entry signal taken 4 min after adding it", "measured": "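Duplicate raw fluo-4 intensities per well from a plate reader, at rest and four minutes after thapsigargin emptied calcium stores; entry-to-rest ratio filled for only some wells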", "direction": "calcium entry signal: higher = stronger calcium signal after store depletion; resting calcium signal: higher = higher resting calcium signal", "active means": "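Hit if the duplicate-averaged plate z-score for entry over resting signal is under −3; wells with weak total dye signal (Fmax z < −2) or more than 5 off-targets removed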", "calls": "active = strongly reduced calcium entry; inactive = no strong reduction", "note": "In all, the deposit lists about 23,000 reagents; this is a random part of those with a known target gene and a result. In the full data, 75 (0.33%) are marked active. 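Raw plate signals without normalisation; calls rest on plate z-scores that were not deposited; ratio present for only 364 wells.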 Entries without a mark were called inactive. Not stated in the record: the dose of the treatment."}
{"gene": "CG18449", "dsRNA": "DRSC06754", "calcium entry signal, replicate 1 (fluorescence units)": 3.45e7, "calcium entry signal, replicate 2 (fluorescence units)": 4.45e7, "resting calcium signal, replicate 1 (fluorescence units)": 1.60e7, "resting calcium signal, replicate 2 (fluorescence units)": 1.81e7}
{"gene": "CG31345", "dsRNA": "DRSC14193", "calcium entry signal, replicate 1 (fluorescence units)": 4.42e7, "calcium entry signal, replicate 2 (fluorescence units)": 3.10e7, "resting calcium signal, replicate 1 (fluorescence units)": 1.90e7, "resting calcium signal, replicate 2 (fluorescence units)": 1.45e7}
{"gene": "CG31345", "dsRNA": "DRSC14847", "calcium entry signal, replicate 1 (fluorescence units)": 3.42e7, "calcium entry signal, replicate 2 (fluorescence units)": 3.25e7, "resting calcium signal, replicate 1 (fluorescence units)": 1.68e7, "resting calcium signal, replicate 2 (fluorescence units)": 1.72e7}
{"gene": "Polr2J", "dsRNA": "DRSC02995", "calcium entry signal, replicate 1 (fluorescence units)": 4.50e7, "calcium entry signal, replicate 2 (fluorescence units)": 3.85e7, "resting calcium signal, replicate 1 (fluorescence units)": 2.07e7, "resting calcium signal, replicate 2 (fluorescence units)": 1.61e7}
{"gene": "CG5704", "dsRNA": "DRSC08572", "calcium entry signal, replicate 1 (fluorescence units)": 4.04e7, "calcium entry signal, replicate 2 (fluorescence units)": 3.65e7, "resting calcium signal, replicate 1 (fluorescence units)": 1.88e7, "resting calcium signal, replicate 2 (fluorescence units)": 2.01e7}
{"gene": "Sema5c", "dsRNA": "DRSC11279", "calcium entry signal, replicate 1 (fluorescence units)": 3.39e7, "calcium entry signal, replicate 2 (fluorescence units)": 4.43e7, "resting calcium signal, replicate 1 (fluorescence units)": 1.71e7, "resting calcium signal, replicate 2 (fluorescence units)": 2.06e7}
{"gene": "CG15128", "dsRNA": "DRSC06550", "calcium entry signal, replicate 1 (fluorescence units)": 6.76e7, "calcium entry signal, replicate 2 (fluorescence units)": 5.21e7, "resting calcium signal, replicate 1 (fluorescence units)": 2.39e7, "resting calcium signal, replicate 2 (fluorescence units)": 2.56e7}
{"gene": "CG16734", "dsRNA": "DRSC15143", "calcium entry signal, replicate 1 (fluorescence units)": 3.55e7, "calcium entry signal, replicate 2 (fluorescence units)": 2.97e7, "resting calcium signal, replicate 1 (fluorescence units)": 2.18e7, "resting calcium signal, replicate 2 (fluorescence units)": 1.62e7}
{"gene": "CG5103", "dsRNA": "DRSC10481", "calcium entry signal, replicate 1 (fluorescence units)": 3.12e7, "calcium entry signal, replicate 2 (fluorescence units)": 6.07e7, "resting calcium signal, replicate 1 (fluorescence units)": 1.72e7, "resting calcium signal, replicate 2 (fluorescence units)": 2.47e7}
{"gene": "CG12926", "dsRNA": "DRSC06239", "calcium entry signal, replicate 1 (fluorescence units)": 3.70e7, "calcium entry signal, replicate 2 (fluorescence units)": 4.73e7, "resting calcium signal, replicate 1 (fluorescence units)": 1.84e7, "resting calcium signal, replicate 2 (fluorescence units)": 2.26e7}
{"gene": "CG12926", "dsRNA": "DRSC21930", "calcium entry signal, replicate 1 (fluorescence units)": 2.84e7, "calcium entry signal, replicate 2 (fluorescence units)": 3.96e7, "resting calcium signal, replicate 1 (fluorescence units)": 1.50e7, "resting calcium signal, replicate 2 (fluorescence units)": 2.20e7}
{"gene": "tacc", "dsRNA": "DRSC12019", "calcium entry signal, replicate 1 (fluorescence units)": 3.19e7, "calcium entry signal, replicate 2 (fluorescence units)": 3.48e7, "resting calcium signal, replicate 1 (fluorescence units)": 1.73e7, "resting calcium signal, replicate 2 (fluorescence units)": 1.69e7}
{"gene": "tacc", "dsRNA": "DRSC12388", "calcium entry signal, replicate 1 (fluorescence units)": 3.74e7, "calcium entry signal, replicate 2 (fluorescence units)": 3.07e7, "resting calcium signal, replicate 1 (fluorescence units)": 1.78e7, "resting calcium signal, replicate 2 (fluorescence units)": 1.62e7}
{"gene": "CG14667", "dsRNA": "DRSC12253", "calcium entry signal, replicate 1 (fluorescence units)": 3.18e7, "calcium entry signal, replicate 2 (fluorescence units)": 2.95e7, "resting calcium signal, replicate 1 (fluorescence units)": 1.69e7, "resting calcium signal, replicate 2 (fluorescence units)": 1.50e7}
